Experimental data taken from US20080287398A1, “COLD MENTHOL RECEPTOR-1 ANTAGONISTS” (priority 2007, published 2008).
Not every entry of the source has a single result; some have several. This list holds those alone. An entry can have further records. Values given together differ for a reason that is not stated; they may come from other doses, times, organisms or constructs than stated.

Sequences of proteins named here, by UniProt entry; tags and fusion partners are left off. Residues count along the entry.
UniProt Q1A7N1, 1-1104: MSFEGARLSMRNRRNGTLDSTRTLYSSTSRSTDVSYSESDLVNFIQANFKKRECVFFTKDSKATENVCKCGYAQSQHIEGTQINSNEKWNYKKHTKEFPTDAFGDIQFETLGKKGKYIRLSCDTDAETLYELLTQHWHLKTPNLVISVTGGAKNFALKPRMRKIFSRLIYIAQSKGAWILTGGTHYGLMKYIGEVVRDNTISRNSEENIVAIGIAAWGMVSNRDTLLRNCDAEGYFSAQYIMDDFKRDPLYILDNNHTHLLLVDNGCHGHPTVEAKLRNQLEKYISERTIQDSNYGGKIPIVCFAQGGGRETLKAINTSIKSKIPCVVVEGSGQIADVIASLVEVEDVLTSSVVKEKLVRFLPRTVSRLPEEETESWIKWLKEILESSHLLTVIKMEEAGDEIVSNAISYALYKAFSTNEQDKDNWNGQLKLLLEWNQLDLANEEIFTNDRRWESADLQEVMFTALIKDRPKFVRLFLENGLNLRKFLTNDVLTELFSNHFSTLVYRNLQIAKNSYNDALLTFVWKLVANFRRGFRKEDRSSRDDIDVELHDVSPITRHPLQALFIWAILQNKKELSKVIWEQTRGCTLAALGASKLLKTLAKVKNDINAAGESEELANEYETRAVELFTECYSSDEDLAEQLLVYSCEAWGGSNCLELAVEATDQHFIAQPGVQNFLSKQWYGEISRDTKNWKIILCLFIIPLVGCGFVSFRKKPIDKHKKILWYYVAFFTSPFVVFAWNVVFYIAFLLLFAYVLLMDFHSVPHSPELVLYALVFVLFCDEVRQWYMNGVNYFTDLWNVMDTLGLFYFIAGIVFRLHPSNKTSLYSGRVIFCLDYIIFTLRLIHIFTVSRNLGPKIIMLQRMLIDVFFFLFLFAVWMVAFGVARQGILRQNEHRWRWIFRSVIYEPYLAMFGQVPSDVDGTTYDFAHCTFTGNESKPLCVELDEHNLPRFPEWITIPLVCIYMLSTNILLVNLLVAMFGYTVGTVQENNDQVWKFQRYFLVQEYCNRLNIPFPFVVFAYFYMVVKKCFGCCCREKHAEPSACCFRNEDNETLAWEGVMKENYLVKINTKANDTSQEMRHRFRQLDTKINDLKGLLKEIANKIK

Molecular target: canine TRPM8 (Canis lupus familiaris, UniProt Q1A7N1)
Assay: In vitro canine TRPM8 functional assay (Ca2+-sensitive dye, FLIPR/FDSS, icilin activation)
Format: cell-based
Conditions: HEK293 cells expressing canine TRPM8, icilin activation; eight-point dose-response

Compound	IC50
COc1cc(CC(c2sc3ccccc3c2Br)P(=O)(OC(C)C)OC(C)C)ccc1F (stereo not drawn)	3 nM and 17 nM
CC(C)OP(=O)(OC(C)C)C(Cc1ccc(F)cc1)c1sc2ccccc2c1Br (stereo not drawn) [Cpd 197]	45 nM and 20 nM
CC(C)OP(=O)(OC(C)C)C(Cc1ccc(F)cc1)c1sc2ccccc2c1Cl (stereo not drawn)	66 nM and 31 nM
